The list shows a part of the results.

This test concerns the target T1, OsSMF1 (Oryza sativa, UniProt Q6ZLB0 1-436).
T1 sequence: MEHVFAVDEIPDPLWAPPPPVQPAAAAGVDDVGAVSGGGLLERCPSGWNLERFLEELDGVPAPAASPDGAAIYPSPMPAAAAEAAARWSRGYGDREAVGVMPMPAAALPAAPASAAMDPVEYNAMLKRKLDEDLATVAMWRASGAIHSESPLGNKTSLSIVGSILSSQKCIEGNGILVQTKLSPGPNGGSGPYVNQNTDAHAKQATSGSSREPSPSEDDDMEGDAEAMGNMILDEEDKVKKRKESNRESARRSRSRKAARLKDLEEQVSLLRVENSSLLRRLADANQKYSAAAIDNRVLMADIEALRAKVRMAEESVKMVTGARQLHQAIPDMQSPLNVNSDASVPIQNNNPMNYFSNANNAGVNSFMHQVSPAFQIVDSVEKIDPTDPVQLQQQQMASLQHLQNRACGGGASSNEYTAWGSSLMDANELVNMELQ
Kind of test: protein-binding microarray (RPBM); PBS, 2% BSA, 51.3 ng/ul salmon testes DNA, 50 uM zinc acetate, 200 nM TF, 25 C, 1 h; high values mean tight binding. The settings on record: protein: recombinant; tags: N-terminal polyhistidine and DsRed monomer fusion (pET32a); chain copies: 2; label: CyDye5-dUTP incorporated in the synthesized complementary strand; 3' TTTTT single-stranded linker to array surface; dsDNA, one strand shown. Put shortly: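 Transcription factors, each fused N-terminally to a polyhistidine tag and DsRed, were expressed in E. coli BL21-CodonPlus and purified on Ni–NTA. A custom Agilent array was made double-stranded by primer extension with Cy5-dUTP and blocked with 2% BSA. It was incubated with 200 nM protein in PBS, 2% BSA, salmon testes DNA and 50 µM zinc acetate at 25 °C for 1 h, then washed. The binding signal is per-feature fluorescence intensity (arbitrary units) read on an Axon 4000B scanner.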
Consider “CTTCACCGGCGGCGAGGAGCACGTCACCGGCGGCGAGCACCGGAGTCACCTAGTGCAG”, for which the binding signal is 4120 fluorescence intensity (a.u.).

For “AGTAATACTGTACAACGTAGTGGTAGCAGGAGCCGGAAGGCGGAGTCACCTAGTGCAG”, the binding signal was 4190 fluorescence intensity (a.u.).

For “ATATGTGGGTCTCATGCTGACTCATCCGCCACGTCAGATACGGAGTCACCTAGTGCAG”, the binding signal was 42600 fluorescence intensity (a.u.).

Take “CTGAGTGTGTTGCCTGTAGATATCCATGGGCAACCCACATCGGAGTCACCTAGTGCAG”: the binding signal is 3350 fluorescence intensity (a.u.).

As to “TATCTTCCAAGTAGGAAAATATGCTGACATGGATCTCTTGCGGAGTCACCTAGTGCAG”, the binding signal was 5860 fluorescence intensity (a.u.).

For the sequence “AAGCGGAACGAATGGTCGGAAACCGAGCGGACAAAACAGCCGGAGTCACCTAGTGCAG”, the binding signal was 21700 fluorescence intensity (a.u.).

For the sequence “GAAGCCAATTTTAAGTGGTATATAAGAGAGCCGGTTAATTCGGAGTCACCTAGTGCAG”, the binding signal was 15100 fluorescence intensity (a.u.).

In the case of “CCATTTGTGCCTGGTCGACATAACACTTCCCAACATCTCACGGAGTCACCTAGTGCAG”, the binding signal was 3620 fluorescence intensity (a.u.).

For the sequence “GAGAATGCCAGAGCTTACAGTATCTCAATTTATCTAGGAACGGAGTCACCTAGTGCAG”, the binding signal is 4090 fluorescence intensity (a.u.).

Take “TGAACTACTGCTGCTGCTACTCCATGTCATTTTCTCCCATCGGAGTCACCTAGTGCAG”: the binding signal is 3370 fluorescence intensity (a.u.).

Turning to “CATCTTCTCCAATTGATGTGGCTCTCTCATTTGACCATTTCGGAGTCACCTAGTGCAG”, the binding signal was 4260 fluorescence intensity (a.u.).

In the case of “ACCCCGCCAAAAGCTCACCTCGTCGTCGTCGTCGTCGTATCGGAGTCACCTAGTGCAG”, the binding signal was 3190 fluorescence intensity (a.u.).

In the case of “ATGCTTTGAATTCCAACTCATCATCGACCCTTATGTTGCACGGAGTCACCTAGTGCAG”, the binding signal is 6670 fluorescence intensity (a.u.).

Regarding “ATCCAAATTGGCTGTCGGGGCCAGATCACGCTGTGCGCTGCGGAGTCACCTAGTGCAG”, the binding signal was 3230 fluorescence intensity (a.u.).

For the sequence “TTGGTTAGCTTAGCTGGACCTGTTATCTGTCTGGGAAAGGCGGAGTCACCTAGTGCAG”, the binding signal was 3820 fluorescence intensity (a.u.).

For the sequence “AAGGTCACTCGCACACATCCAGCCCCAGCCAATAGGTTCCCGGAGTCACCTAGTGCAG”, the binding signal was 23400 fluorescence intensity (a.u.).

As for “TAAAGCTCAACACACAACCATGTTACATCATCACCCACTACGGAGTCACCTAGTGCAG”, the binding signal is 6700 fluorescence intensity (a.u.).

On to “CAAGTCCATGTCATCCTCGTTCCTGTGGTGCCCCATGTCGCGGAGTCACCTAGTGCAG”, for which the binding signal is 8040 fluorescence intensity (a.u.).

As to “GCGCACACGCCCACGCGCTCCCCTCGCACGCCACCGGACGCGGAGTCACCTAGTGCAG”, the binding signal was 3250 fluorescence intensity (a.u.).

Consider “GCCTTCCAAGTCACCACCAACCCCTCTTTCTTTGATCACCCGGAGTCACCTAGTGCAG”, for which the binding signal is 6820 fluorescence intensity (a.u.).

For “ATCCGCACCGGATCTCGCCGGAGGAGTCAGCCGGCCGCACCGGAGTCACCTAGTGCAG”, the binding signal was 3880 fluorescence intensity (a.u.).

In the case of “GGATGGCCCTCTCACGTTCACGTACGCAACGCCGATTCGACGGAGTCACCTAGTGCAG”, the binding signal is 3660 fluorescence intensity (a.u.).

Regarding “CACGGGACGCCGCGCGCTCTGCCGCGTCGTCGTCCCCTCTCGGAGTCACCTAGTGCAG”, the binding signal was 3660 fluorescence intensity (a.u.).

As to “AAGGGTCAGGACTGCTCGTTAACACGTGGATCCTCAGTTCCGGAGTCACCTAGTGCAG”, the binding signal is 8690 fluorescence intensity (a.u.).

Turning to “CCGCCGATCCATCGCCGCCGCTGCCGCCGTTTTCTATTGTCGGAGTCACCTAGTGCAG”, the binding signal is 3270 fluorescence intensity (a.u.).

With “GCGAGCAGTCGATGTCCTCGATGACGATGATGGACTTGCTCGGAGTCACCTAGTGCAG”, the binding signal was 4140 fluorescence intensity (a.u.).

In the case of “CCACCGTCCGATTACGACACGTGGCGCGATCCCAGCGGCCCGGAGTCACCTAGTGCAG”, the binding signal is 16900 fluorescence intensity (a.u.).

Regarding “GATTAGATTCGGGTCACTTTTAATGAAGTCAAAGTGGACTCGGAGTCACCTAGTGCAG”, the binding signal was 13500 fluorescence intensity (a.u.).

Regarding “ACTGTTATGGAGCTGGGTATTACCCCAATTGTGACATCTGCGGAGTCACCTAGTGCAG”, the binding signal was 23100 fluorescence intensity (a.u.).

As for “GGTACACTAAAATTTCAGATATAGCTACCAAATTTCCTGTCGGAGTCACCTAGTGCAG”, the binding signal is 24200 fluorescence intensity (a.u.).

With “AACTTGTTCCAGCTGCAGCTTTTCCTAAAAGCTGCTTCTGCGGAGTCACCTAGTGCAG”, the binding signal was 3170 fluorescence intensity (a.u.).

As to “GAGCGGACGGTGCAGGACGCGCTGGACCGGGCGTCCGTGGCGGAGTCACCTAGTGCAG”, the binding signal was 3850 fluorescence intensity (a.u.).

With “GCGTAGTATTTGTCGTAACCAGGAGCATCCGAGTCATTAACGGAGTCACCTAGTGCAG”, the binding signal is 4680 fluorescence intensity (a.u.).

With “CAAGACGTTGGAAACCCAGTCACCCACGGCCACAGCCCAACGGAGTCACCTAGTGCAG”, the binding signal is 3350 fluorescence intensity (a.u.).

On to “AATTAATCATTACTAACTTGTTTCATTTTACGTGGACTAACGGAGTCACCTAGTGCAG”, for which the binding signal was 3420 fluorescence intensity (a.u.).

Consider “TGAAGGTGCTGTGTTTTGAGTGCTTGGGATGAGCTGCGTGCGGAGTCACCTAGTGCAG”, for which the binding signal was 3630 fluorescence intensity (a.u.).

In the case of “GGATGCGACCGTCATCACCGTTTGCCGTGTAGCGGATGCCCGGAGTCACCTAGTGCAG”, the binding signal is 4740 fluorescence intensity (a.u.).

Turning to “AGAGAAAGGAAGGGAAGAGAGAGGGTGATGACGTGGCGACCGGAGTCACCTAGTGCAG”, the binding signal was 35600 fluorescence intensity (a.u.).

In the case of “GCGTAATAAGCCGATGCGCGTCATCGGGCCGAGCCTGACGCGGAGTCACCTAGTGCAG”, the binding signal was 4490 fluorescence intensity (a.u.).

For “AGCTGGTGTTGGTGGTGTTGGTGGTGGTAGGCGGCGGCGTCGGAGTCACCTAGTGCAG”, the binding signal was 3680 fluorescence intensity (a.u.).

As to “AAGGATGGAGGTAGCTAAGCCAACTCGATCAGGGTTGTCACGGAGTCACCTAGTGCAG”, the binding signal was 3210 fluorescence intensity (a.u.).

With “ACAGAGAAACACGCTGGCACTCTTGAGATGATTAGATCTGCGGAGTCACCTAGTGCAG”, the binding signal is 4260 fluorescence intensity (a.u.).

The values are drawn from PMC7819943, “Rice protein-binding microarrays: a tool to detect cis-acting elements near promoter regions in rice”.
